In paper PMC5406014:
No constants are given. Whether binding was seen depends on the method and setting. Binding seen in cells or lysates may run through a third protein. A yes stands for co-enrichment or nearness to the bait. Other partners may have been found. Values belong to the molecule of their own block, whether it stands above or below them.

Protein sequences, listed by entry. Tags and fused reporters are not part of them.
UniProt P54274: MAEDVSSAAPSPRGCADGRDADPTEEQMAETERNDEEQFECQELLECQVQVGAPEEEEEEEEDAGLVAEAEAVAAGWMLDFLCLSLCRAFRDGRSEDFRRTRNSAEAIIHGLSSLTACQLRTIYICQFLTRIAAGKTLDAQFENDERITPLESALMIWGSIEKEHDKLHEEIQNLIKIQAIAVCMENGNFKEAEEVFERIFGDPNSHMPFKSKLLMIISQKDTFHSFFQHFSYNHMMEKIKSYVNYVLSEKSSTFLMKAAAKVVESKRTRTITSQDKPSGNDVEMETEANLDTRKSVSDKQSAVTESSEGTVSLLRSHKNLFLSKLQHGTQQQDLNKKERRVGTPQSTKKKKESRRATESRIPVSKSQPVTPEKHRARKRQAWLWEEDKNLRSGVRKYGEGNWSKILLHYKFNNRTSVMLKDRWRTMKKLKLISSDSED
UniProt P39748: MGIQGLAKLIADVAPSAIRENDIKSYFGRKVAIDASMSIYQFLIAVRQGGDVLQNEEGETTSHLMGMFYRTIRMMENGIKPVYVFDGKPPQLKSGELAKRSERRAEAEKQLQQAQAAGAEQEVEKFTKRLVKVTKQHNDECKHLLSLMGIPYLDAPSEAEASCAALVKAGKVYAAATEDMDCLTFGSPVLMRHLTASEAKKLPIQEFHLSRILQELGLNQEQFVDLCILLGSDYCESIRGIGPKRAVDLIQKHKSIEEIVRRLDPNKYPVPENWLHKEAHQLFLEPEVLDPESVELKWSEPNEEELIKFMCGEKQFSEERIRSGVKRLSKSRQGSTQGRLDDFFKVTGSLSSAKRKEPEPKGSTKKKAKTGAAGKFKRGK
UniProt P54132: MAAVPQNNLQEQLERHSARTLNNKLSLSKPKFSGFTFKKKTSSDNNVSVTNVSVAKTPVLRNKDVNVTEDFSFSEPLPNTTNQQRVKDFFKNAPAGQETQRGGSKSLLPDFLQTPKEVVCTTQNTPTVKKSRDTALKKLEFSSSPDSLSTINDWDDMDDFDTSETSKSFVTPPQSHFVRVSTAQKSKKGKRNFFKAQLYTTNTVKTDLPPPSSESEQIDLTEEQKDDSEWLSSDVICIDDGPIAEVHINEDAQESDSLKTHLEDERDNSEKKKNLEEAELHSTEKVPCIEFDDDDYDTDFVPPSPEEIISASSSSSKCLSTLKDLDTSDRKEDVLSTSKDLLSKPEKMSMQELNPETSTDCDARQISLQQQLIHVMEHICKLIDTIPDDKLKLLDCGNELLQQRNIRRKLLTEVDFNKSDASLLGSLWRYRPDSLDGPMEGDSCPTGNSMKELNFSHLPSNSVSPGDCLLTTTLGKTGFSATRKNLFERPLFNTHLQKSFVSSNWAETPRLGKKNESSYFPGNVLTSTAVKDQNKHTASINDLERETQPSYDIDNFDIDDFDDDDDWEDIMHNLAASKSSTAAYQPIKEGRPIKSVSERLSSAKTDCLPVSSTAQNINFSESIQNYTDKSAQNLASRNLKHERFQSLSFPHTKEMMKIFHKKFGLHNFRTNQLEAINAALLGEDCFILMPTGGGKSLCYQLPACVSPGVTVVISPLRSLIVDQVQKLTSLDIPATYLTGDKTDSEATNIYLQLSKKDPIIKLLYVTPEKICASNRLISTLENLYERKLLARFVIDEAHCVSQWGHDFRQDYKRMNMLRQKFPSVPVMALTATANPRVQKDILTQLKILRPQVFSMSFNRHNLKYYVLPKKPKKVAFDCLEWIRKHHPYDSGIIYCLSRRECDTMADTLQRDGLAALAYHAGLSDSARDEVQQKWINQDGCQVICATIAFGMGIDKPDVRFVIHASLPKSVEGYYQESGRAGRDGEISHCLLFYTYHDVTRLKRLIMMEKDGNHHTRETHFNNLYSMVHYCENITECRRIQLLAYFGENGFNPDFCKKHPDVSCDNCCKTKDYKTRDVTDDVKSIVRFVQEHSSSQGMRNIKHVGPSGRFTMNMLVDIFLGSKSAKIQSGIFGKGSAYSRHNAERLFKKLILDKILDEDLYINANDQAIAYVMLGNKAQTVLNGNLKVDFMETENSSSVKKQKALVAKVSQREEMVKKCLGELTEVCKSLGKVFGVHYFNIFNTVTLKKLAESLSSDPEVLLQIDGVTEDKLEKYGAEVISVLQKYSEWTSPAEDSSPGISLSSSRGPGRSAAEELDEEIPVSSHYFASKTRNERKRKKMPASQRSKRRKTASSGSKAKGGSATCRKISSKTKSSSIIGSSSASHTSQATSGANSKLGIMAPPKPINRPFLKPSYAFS
UniProt P09874: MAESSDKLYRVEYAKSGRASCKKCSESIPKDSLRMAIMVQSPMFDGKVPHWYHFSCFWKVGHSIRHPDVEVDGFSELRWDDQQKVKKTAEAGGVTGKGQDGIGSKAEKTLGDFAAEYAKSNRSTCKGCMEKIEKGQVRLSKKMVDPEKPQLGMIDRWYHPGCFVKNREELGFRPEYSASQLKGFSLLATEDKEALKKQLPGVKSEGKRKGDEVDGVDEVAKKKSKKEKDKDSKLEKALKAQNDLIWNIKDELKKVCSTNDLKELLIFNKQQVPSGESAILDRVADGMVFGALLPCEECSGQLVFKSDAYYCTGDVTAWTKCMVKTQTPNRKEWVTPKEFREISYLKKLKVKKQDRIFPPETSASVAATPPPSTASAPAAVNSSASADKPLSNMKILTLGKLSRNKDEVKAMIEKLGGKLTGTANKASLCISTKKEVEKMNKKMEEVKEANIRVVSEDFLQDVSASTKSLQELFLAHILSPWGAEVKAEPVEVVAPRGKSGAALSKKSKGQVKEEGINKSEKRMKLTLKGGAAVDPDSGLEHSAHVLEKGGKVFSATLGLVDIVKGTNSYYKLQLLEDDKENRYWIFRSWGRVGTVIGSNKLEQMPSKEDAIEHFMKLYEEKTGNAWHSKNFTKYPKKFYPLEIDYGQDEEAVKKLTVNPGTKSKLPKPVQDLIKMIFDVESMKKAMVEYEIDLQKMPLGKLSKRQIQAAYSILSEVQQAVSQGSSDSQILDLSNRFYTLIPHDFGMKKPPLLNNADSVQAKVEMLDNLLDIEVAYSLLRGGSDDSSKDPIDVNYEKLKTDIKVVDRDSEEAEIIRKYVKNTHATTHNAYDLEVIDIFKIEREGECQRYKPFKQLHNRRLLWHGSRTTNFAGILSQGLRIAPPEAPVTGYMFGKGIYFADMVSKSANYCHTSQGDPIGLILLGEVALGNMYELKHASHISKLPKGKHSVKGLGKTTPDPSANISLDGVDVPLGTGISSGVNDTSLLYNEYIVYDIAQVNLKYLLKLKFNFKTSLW
UniProt P52701: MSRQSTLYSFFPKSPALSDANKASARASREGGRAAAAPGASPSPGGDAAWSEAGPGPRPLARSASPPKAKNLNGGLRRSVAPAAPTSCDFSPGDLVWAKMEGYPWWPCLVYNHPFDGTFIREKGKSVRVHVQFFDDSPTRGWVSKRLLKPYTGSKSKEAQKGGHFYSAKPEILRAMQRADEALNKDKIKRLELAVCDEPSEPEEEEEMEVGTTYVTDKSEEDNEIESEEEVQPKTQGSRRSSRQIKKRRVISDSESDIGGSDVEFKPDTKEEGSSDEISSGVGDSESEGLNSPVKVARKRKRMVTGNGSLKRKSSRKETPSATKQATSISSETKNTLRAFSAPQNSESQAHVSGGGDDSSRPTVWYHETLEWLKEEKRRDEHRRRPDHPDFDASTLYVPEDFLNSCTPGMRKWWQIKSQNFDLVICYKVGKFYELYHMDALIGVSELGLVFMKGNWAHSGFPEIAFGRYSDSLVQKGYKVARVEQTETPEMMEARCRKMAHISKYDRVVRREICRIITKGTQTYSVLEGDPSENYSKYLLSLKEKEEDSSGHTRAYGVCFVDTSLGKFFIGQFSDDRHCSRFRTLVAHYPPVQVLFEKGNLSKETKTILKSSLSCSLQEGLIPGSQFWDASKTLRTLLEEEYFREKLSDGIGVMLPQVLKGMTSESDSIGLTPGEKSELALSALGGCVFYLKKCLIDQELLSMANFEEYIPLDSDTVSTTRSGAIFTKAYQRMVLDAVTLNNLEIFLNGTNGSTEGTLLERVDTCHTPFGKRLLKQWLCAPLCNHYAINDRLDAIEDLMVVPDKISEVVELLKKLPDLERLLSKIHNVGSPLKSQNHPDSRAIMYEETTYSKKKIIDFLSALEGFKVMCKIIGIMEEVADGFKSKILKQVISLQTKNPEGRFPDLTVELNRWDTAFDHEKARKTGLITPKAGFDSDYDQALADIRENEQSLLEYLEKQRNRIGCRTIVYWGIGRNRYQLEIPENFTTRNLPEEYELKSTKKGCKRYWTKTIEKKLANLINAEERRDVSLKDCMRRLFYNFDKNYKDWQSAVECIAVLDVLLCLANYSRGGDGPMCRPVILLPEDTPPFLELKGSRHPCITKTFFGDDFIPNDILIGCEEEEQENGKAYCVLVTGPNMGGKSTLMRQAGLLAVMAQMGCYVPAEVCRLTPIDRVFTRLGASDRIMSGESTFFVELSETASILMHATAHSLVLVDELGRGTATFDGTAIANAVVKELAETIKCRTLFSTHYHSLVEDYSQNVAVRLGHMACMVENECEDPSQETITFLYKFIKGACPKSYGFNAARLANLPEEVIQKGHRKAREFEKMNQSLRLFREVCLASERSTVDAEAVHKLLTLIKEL
UniProt Q96AP0: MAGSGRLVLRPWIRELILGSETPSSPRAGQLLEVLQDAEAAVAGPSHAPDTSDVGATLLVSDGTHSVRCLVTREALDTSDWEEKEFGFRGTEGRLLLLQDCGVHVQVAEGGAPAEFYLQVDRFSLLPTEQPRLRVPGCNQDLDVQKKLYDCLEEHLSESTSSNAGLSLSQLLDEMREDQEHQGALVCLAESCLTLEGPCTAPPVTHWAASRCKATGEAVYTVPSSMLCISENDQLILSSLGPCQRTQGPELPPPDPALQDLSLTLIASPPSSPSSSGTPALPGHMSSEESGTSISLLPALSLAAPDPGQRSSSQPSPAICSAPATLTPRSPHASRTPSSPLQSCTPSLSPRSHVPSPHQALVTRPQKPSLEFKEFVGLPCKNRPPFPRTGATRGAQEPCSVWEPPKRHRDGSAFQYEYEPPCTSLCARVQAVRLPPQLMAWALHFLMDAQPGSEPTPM
UniProt P29590: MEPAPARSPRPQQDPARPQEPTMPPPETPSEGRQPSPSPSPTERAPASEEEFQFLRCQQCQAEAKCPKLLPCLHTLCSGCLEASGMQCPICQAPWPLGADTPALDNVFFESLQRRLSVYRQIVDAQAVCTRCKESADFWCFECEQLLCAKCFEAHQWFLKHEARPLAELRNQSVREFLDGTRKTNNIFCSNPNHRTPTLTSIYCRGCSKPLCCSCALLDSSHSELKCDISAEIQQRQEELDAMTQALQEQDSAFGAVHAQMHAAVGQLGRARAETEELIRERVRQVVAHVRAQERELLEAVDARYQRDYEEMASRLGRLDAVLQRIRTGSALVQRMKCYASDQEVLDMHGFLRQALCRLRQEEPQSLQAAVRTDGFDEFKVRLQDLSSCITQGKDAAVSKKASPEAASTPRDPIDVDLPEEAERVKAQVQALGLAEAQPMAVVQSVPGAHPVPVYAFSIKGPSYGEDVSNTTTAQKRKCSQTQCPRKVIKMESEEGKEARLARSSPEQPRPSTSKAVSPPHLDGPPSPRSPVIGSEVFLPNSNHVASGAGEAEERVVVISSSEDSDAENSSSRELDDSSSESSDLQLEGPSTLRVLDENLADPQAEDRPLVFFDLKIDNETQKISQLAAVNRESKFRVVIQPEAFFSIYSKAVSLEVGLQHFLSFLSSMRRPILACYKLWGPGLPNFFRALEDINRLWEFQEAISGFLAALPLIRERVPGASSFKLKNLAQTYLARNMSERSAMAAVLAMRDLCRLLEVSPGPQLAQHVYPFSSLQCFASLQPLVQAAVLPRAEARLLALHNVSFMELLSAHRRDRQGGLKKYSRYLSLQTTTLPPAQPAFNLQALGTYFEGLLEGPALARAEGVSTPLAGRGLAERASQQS

Tests used:
[1] = target: myc-BirA-TRF1 (UniProt P54274); assay: proximity labelling; BioID in ALT+ U2OS cells stably expressing myc-BirA-TRF1; 50 µM biotin for 24 hr; streptavidin pull-down from ~6 x 10^7 cells, LC-MS in triplicate; myc-BirA cells as negative reference
[2] = target: myc-BirA-TRF1 (UniProt P54274); assay: proximity labelling; BioID in TEL+ HeLa LT cells stably expressing myc-BirA-TRF1; 50 µM biotin for 24 hr; streptavidin pull-down from ~6 x 10^7 cells, LC-MS in triplicate; myc-BirA cells as negative reference

- binding [2]: binds
Molecule: FEN1 (from UniProt P39748 1-380)
- binding [1]: binds

- binding [2]: binds
Molecule: BLM (from UniProt P54132 1-1417)
- binding [1]: binds

- binding [2]: binds
Molecule: PARP1 (from UniProt P09874 1-1014)
- binding [1]: binds

- binding [2]: binds
Molecule: ATRX (from UniProt P46100 1-2492)

- binding [2]: binds
Molecule: SMCHD1 (from UniProt A6NHR9 1-2005)

- binding [2]: binds
B4: TIN2 (protein, UniProt Q9BSI4 1-451)
chain: MATPLVAGPAALRFAAAASWQVVRGRCVEHFPRVLEFLRSLRAVAPGLVRYRHHERLCMGLKAKVVVELILQGRPWAQVLKALNHHFPESGPIVRDPKATKQDLRKILEAQETFYQQVKQLSEAPVDLASKLQELEQEYGEPFLAAMEKLLFEYLCQLEKALPTPQAQQLQDVLSWMQPGVSITSSLAWRQYGVDMGWLLPECSVTDSVNLAEPMEQNPPQQQRLALHNPLPKAKPGTHLPQGPSSRTHPEPLAGRHFNLAPLGRRRVQSQWASTRGGHKERPTVMLFPFRNLGSPTQVISKPESKEEHAIYTADLAMGTRAASTGKSKSPCQTLGGRALKENPVDLPATEQKENCLDCYMDPLRLSLLPPRARKPVCPPSLCSSVITIGDLVLDSDEEENGQGEGKESLENYQKTKFDTLIPTLCEYLPPSGHGAIPVSSCDCRDSSRPL
- binding [1]: binds

- binding [2]: binds
B5: POT1 (protein, UniProt Q9NUX5 1-634)
chain: MSLVPATNYIYTPLNQLKGGTIVNVYGVVKFFKPPYLSKGTDYCSVVTIVDQTNVKLTCLLFSGNYEALPIIYKNGDIVRFHRLKIQVYKKETQGITSSGFASLTFEGTLGAPIIPRTSSKYFNFTTEDHKMVEALRVWASTHMSPSWTLLKLCDVQPMQYFDLTCQLLGKAEVDGASFLLKVWDGTRTPFPSWRVLIQDLVLEGDLSHIHRLQNLTIDILVYDNHVHVARSLKVGSFLRIYSLHTKLQSMNSENQTMLSLEFHLHGGTSYGRGIRVLPESNSDVDQLKKDLESANLTANQHSDVICQSEPDDSFPSSGSVSLYEVERCQQLSATILTDHQYLERTPLCAILKQKAPQQYRIRAKLRSYKPRRLFQSVKLHCPKCHLLQEVPHEGDLDIIFQDGATKTPDVKLQNTSLYDSKIWTTKNQKGRKVAVHFVKNNGILPLSNECLLLIEGGTLSEICKLSNKFNSVIPVRSGHEDLELLDLSAPFLIQGTIHHYGCKQCSSLRSIQNLNSLVDKTSWIPSSVAEALGIVPLQYVFVMTFTLDDGTGVLEAYLMDSDKFFQIPASEVLMDDDLQKSVDMIMDMFCPPGIKIDAYPWLECFIKSYNVTNGTDNQICYQIFDTTVAEDVI
- binding [1]: binds

- binding [2]: binds
B6: LRIF1 (protein, UniProt Q5T3J3 1-769)
chain: MSNNLRRVFLKPAEENSGNASRCVSGCMYQVVQTIGSDGKNLLQLLPIPKSSGNLIPLVQSSVMSDALKGNTGKPVQVTFQTQISSSSTSASVQLPIFQPASSSNYFLTRTVDTSEKGRVTSVGTGNFSSSVSKVQSHGVKIDGLTMQTFAVPPSTQKDSSFIVVNTQSLPVTVKSPVLPSGHHLQIPAHAEVKSVPASSLPPSVQQKILATATTSTSGMVEASQMPTVIYVSPVNTVKNVVTKNFQNIYPKPVTEIAKPVILNTTQIPKNVATETQLKGGQHSQAAPVKWIFQDNLQPFTPSLVPVKSSNNVASKILKTFVDRKNLGDNTINMPPLSTIDPSGTRSKNMPIKDNALVMFNGKVYLLAKKGTDVLPSQIDQQNSVSPDTPVRKDTLQTVSSSPVTEISREVVNIVLAKSKSSQMETKSLSNTQLASMANLRAEKNKVEKPSPSTTNPHMNQSSNYLKQSKTLFTNPIFPVGFSTGHNAPRKVTAVIYARKGSVLQSIEKISSSVDATTVTSQQCVFRDQEPKIHNEMASTSDKGAQGRNDKKDSQGRSNKALHLKSDAEFKKIFGLTKDLRVCLTRIPDHLTSGEGFDSFSSLVKSGTYKETEFMVKEGERKQQNFDKKRKAKTNKKMDHIKKRKTENAYNAIINGEANVTGSQLLSSILPTSDVSQHNILTSHSKTRQEKRTEMEYYTHEKQEKGTLNSNAAYEQSHFFNKNYTEDIFPVTPPELEETIRDEKIRRLKQVLREKEAALEEMRKKMHQK

Second part, the molecule before the results:

Molecule: SLX4 (from UniProt Q8IY92 1-1834)
- binding [1]: binds

Molecule: MSH6 (from UniProt P52701 1-1360)
- binding [1]: binds

Molecule: TPP1 (from UniProt Q96AP0 1-458)
- binding [1]: binds
- binding [2]: binds

Molecule: PML (from UniProt P29590 1-882)
- binding [1]: binds

B1: ERCC1 (protein, UniProt P07992 1-297)
chain: MDPGKDKEGVPQPSGPPARKKFVIPLDEDEVPPGVAKPLFRSTQSLPTVDTSAQAAPQTYAEYAISQPLEGAGATCPTGSEPLAGETPNQALKPGAKSNSIIVSPRQRGNPVLKFVRNVPWEFGDVIPDYVLGQSTCALFLSLRYHNLHPDYIHGRLQSLGKNFALRVLLVQVDVKDPQQALKELAKMCILADCTLILAWSPEEAGRYLETYKAYEQKPADLLMEKLEQDFVSRVTECLTTVKSVNKTDSQTLLTTFGSLEQLIAASREDLALCPGLGPQKARRLFDVLHEPFLKVP
- binding [1]: binds

B2: NR2C1 (protein, UniProt P13056 1-603)
chain: MATIEEIAHQIIEQQMGEIVTEQQTGQKIQIVTALDHNTQGKQFILTNHDGSTPSKVILARQDSTPGKVFLTTPDAAGVNQLFFTTPDLSAQHLQLLTDNSPDQGPNKVFDLCVVCGDKASGRHYGAVTCEGCKGFFKRSIRKNLVYSCRGSKDCIINKHHRNRCQYCRLQRCIAFGMKQDSVQCERKPIEVSREKSSNCAASTEKIYIRKDLRSPLTATPTFVTDSESTRSTGLLDSGMFMNIHPSGVKTESAVLMTSDKAESCQGDLSTLANVVTSLANLGKTKDLSQNSNEMSMIESLSNDDTSLCEFQEMQTNGDVSRAFDTLAKALNPGESTACQSSVAGMEGSVHLITGDSSINYTEKEGPLLSDSHVAFRLTMPSPMPEYLNVHYIGESASRLLFLSMHWALSIPSFQALGQENSISLVKAYWNELFTLGLAQCWQVMNVATILATFVNCLHNSLQQDKMSTERRKLLMEHIFKLQEFCNSMVKLCIDGYEYAYLKAIVLFSPDHPSLENMEQIEKFQEKAYVEFQDYITKTYPDDTYRLSRLLLRLPALRLMNATITEELFFKGLIGNIRIDSVIPHILKMEPADYNSQIIGHSI
- binding [1]: binds

B3: ZNF827 (protein, UniProt Q17R98 1-1081)
chain: MPRRKQEQPKRLPSHVSRQEEAEGELSEGEHWYGNSSETPSEASYGEVQENYKLSLEDRIQEQSTSPDTSLGSTTPSSHTLELVALDSEVLRDSLQCQDHLSPGVSSLCDDDPGSNKPLSSNLRRLLEAGSLKLDAAATANGRVESPVNVGSNLSFSPPSHHAQQLSVLARKLAEKQEQNDQYTPSNRFIWNQGKWLPNSTTTCSLSPDSAILKLKAAANAVLQDKSLTRTEETMRFESFSSPFSSQSASSTLAALSKKVSERSLTPGQEHPPPASSFLSLASMTSSAALLKEVAARAAGSLLAEKSSLLPEDPLPPPPSEKKPEKVTPPPPPPPPPPPPPPPQSLELLLLPVPKGRVSKPSNSASEEESGKPFQCPICGLVIKRKSYWKRHMVIHTGLKSHQCPLCPFRCARKDNLKSHMKVHQHQDRGETFQCQLCPFTSSRHFSLKLHMRCHQHFLRTEAKVKEEIPDPDVKGSPHLSDSACLGQQREGGGTELVGTMMTSNTPERTSQGGAGVSPLLVKEEPKEDNGLPTSFTLNAADRPANHTKLKDPSEYVANSASALFSQDISVKMASDFLMKLSAANQKEPMNLNFKVKEEPKEGESLSTTLPRSSYVFSPESEVSAPGVSEDALKPQEGKGSVLRRDVSVKAASELLMKLSAESYKETQMVKIKEEPMEVDIQDSHVSISPSRNVGYSTLIGREKTEPLQKMPEGRVPPERNLFSQDISVKMASELLFQLSEKVSKEHNHTKENTIRTTTSPFFSEDTFRQSPFTSNSKELLPSDSVLHGRISAPETEKIVLEAGNGLPSWKFNDQLFPCDVCGKVFGRQQTLSRHLSLHTEERKYKCHLCPYAAKCRANLNQHLTVHSVKLVSTDTEDIVSAVTSEGSDGKKHPYYYSCHVCGFETELNVQFVSHMSLHVDKEQWMFSICCTACDFVTMEEAEIKTHIGTKHTGEDRKTPSESNSPSSSSLSALSDSANSKDDSDGSQKNKGGNNLLVISVMPGSQPSLNSEEKPEKGFECVFCNFVCKTKNMFERHLQIHLITRMFECDVCHKFMKTPEQLLEHKKCHTVPTGGLNSGQW
- binding [1]: binds

B7: PMS2 (protein, UniProt P54278 1-862)
chain: MERAESSSTEPAKAIKPIDRKSVHQICSGQVVLSLSTAVKELVENSLDAGATNIDLKLKDYGVDLIEVSDNGCGVEEENFEGLTLKHHTSKIQEFADLTQVETFGFRGEALSSLCALSDVTISTCHASAKVGTRLMFDHNGKIIQKTPYPRPRGTTVSVQQLFSTLPVRHKEFQRNIKKEYAKMVQVLHAYCIISAGIRVSCTNQLGQGKRQPVVCTGGSPSIKENIGSVFGQKQLQSLIPFVQLPPSDSVCEEYGLSCSDALHNLFYISGFISQCTHGVGRSSTDRQFFFINRRPCDPAKVCRLVNEVYHMYNRHQYPFVVLNISVDSECVDINVTPDKRQILLQEEKLLLAVLKTSLIGMFDSDVNKLNVSQQPLLDVEGNLIKMHAADLEKPMVEKQDQSPSLRTGEEKKDVSISRLREAFSLRHTTENKPHSPKTPEPRRSPLGQKRGMLSSSTSGAISDKGVLRPQKEAVSSSHGPSDPTDRAEVEKDSGHGSTSVDSEGFSIPDTGSHCSSEYAASSPGDRGSQEHVDSQEKAPKTDDSFSDVDCHSNQEDTGCKFRVLPQPTNLATPNTKRFKKEEILSSSDICQKLVNTQDMSASQVDVAVKINKKVVPLDFSMSSLAKRIKQLHHEAQQSEGEQNYRKFRAKICPGENQAAEDELRKEISKTMFAEMEIIGQFNLGFIITKLNEDIFIVDQHATDEKYNFEMLQQHTVLQGQRLIAPQTLNLTAVNEAVLIENLEIFRKNGFDFVIDENAPVTERAKLISLPTSKNWTFGPQDVDELIFMLSDSPGVMCRPSRVKQMFASRACRKSVMIGTALNTSEMKKLITHMGEMDHPWNCPHGRPTMRHIANLGVISQN
- binding [1]: binds

B8: NR2C2 (protein, UniProt P49116 1-596)
chain: MTSPSPRIQIISTDSAVASPQRIQIVTDQQTGQKIQIVTAVDASGSPKQQFILTSPDGAGTGKVILASPETSSAKQLIFTTSDNLVPGRIQIVTDSASVERLLGKTDVQRPQVVEYCVVCGDKASGRHYGAVSCEGCKGFFKRSVRKNLTYSCRSNQDCIINKHHRNRCQFCRLKKCLEMGMKMESVQSERKPFDVQREKPSNCAASTEKIYIRKDLRSPLIATPTFVADKDGARQTGLLDPGMLVNIQQPLIREDGTVLLATDSKAETSQGALGTLANVVTSLANLSESLNNGDTSEIQPEDQSASEITRAFDTLAKALNTTDSSSSPSLADGIDTSGGGSIHVISRDQSTPIIEVEGPLLSDTHVTFKLTMPSPMPEYLNVHYICESASRLLFLSMHWARSIPAFQALGQDCNTSLVRACWNELFTLGLAQCAQVMSLSTILAAIVNHLQNSIQEDKLSGDRIKQVMEHIWKLQEFCNSMAKLDIDGYEYAYLKAIVLFSPDHPGLTSTSQIEKFQEKAQMELQDYVQKTYSEDTYRLARILVRLPALRLMSSNITEELFFTGLIGNVSIDSIIPYILKMETAEYNGQITGASL
- binding [1]: binds
